Measurements reported in article PMC7819943, “Rice protein-binding microarrays: a tool to detect cis-acting elements near promoter regions in rice”.
The list shows a part of the results.

Sequences of proteins named here, by UniProt entry; tags and fusion partners are left off.
UniProt Q0JBA9, entry or part of it: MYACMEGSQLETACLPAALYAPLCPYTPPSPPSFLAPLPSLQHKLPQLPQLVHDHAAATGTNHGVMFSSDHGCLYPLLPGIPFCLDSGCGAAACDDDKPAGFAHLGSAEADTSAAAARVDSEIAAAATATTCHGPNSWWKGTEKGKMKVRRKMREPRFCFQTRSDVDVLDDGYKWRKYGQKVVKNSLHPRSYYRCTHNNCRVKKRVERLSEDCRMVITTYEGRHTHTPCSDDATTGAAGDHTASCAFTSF

target: OsWRKY34 (Oryza sativa, UniProt Q0JBA9 1-250); experiment: protein-binding microarray (RPBM); PBS, 2% BSA, 51.3 ng/ul salmon testes DNA, 50 uM zinc acetate, 200 nM TF, 25 C, 1 h; high values mean tight binding; conditions: protein: recombinant; tags: N-terminal polyhistidine and DsRed monomer fusion (pET32a); label: CyDye5-dUTP incorporated in the synthesized complementary strand; 3' TTTTT single-stranded linker to array surface; dsDNA, one strand shown
Procedure, shortened: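 Binding signal is reported as fluorescence intensity per feature (arbitrary units) from an Axon 4000B scanner. Incubation used 200 nM of each Ni–NTA-purified, N-terminally polyhistidine- and DsRed-fused transcription factor from E. coli BL21-CodonPlus on a double-stranded custom Agilent array for 1 h at 25 °C, with 50 µM zinc acetate in the buffer, followed by washing.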

Sequence	binding signal
ACAACCCACTGCGCTGCCCGCCGCCGCCGTCTCCGGCCGACGGAGTCACCTAGTGCAG	8570 fluorescence intensity (a.u.)
TAACTCATATCTCTCCTTTTTCACGCACACGCTTTTTAAACGGAGTCACCTAGTGCAG	10300 fluorescence intensity (a.u.)
CGCCGCTGCACCCGCCGCCGCCGCCGCCACACCACCGATGCGGAGTCACCTAGTGCAG	11200 fluorescence intensity (a.u.)
AGGTGAGGTTTGTTGCTACTTCACCTTCGCTTCGTTGCGCCGGAGTCACCTAGTGCAG	8440 fluorescence intensity (a.u.)
TGATTTCACTTTGATTCCTCGTCTCTTCTCCTCCTCTATACGGAGTCACCTAGTGCAG	9720 fluorescence intensity (a.u.)
GCTGCTCACCCGCCACTCCATCTACTCCAACTGCAGGCCCCGGAGTCACCTAGTGCAG	8360 fluorescence intensity (a.u.)
ATCGCCCATCTTACACGTGCACATGCTCCCGTGTCACCTCCGGAGTCACCTAGTGCAG	10400 fluorescence intensity (a.u.)
CGTCTTCCTACTCCTTTGGACTACTAGCCCGACGCGACCACGGAGTCACCTAGTGCAG	8830 fluorescence intensity (a.u.)
TTGTTTTGTGAGTTTCTTGCTCTGGTAATTTATTGTCCTCCGGAGTCACCTAGTGCAG	8710 fluorescence intensity (a.u.)
GGAGGGGTGAGGTTCATTTCTTTGCTCGATAAGGTTTTTGCGGAGTCACCTAGTGCAG	13900 fluorescence intensity (a.u.)
TCACTTGCACATGGAACCCACTTCTATTTTAAATTCTTTACGGAGTCACCTAGTGCAG	9040 fluorescence intensity (a.u.)
CCCAGGTAGGATATGTGTATGTGTTTATATGGGTGAGTCTCGGAGTCACCTAGTGCAG	9300 fluorescence intensity (a.u.)
CACTATTTACATTCATATTTCTTATTTTCGTTTCATACTTCGGAGTCACCTAGTGCAG	11100 fluorescence intensity (a.u.)
TCTCTTCCATTCCACCTCTCCATCTCGCCGGAATCTCACCCGGAGTCACCTAGTGCAG	8490 fluorescence intensity (a.u.)
TTTGGCTTTTCTCACTTCCTTATTAATCGTGGACTCTCTTCGGAGTCACCTAGTGCAG	9930 fluorescence intensity (a.u.)
GTACAATGCTTCACCATCAGCCCTTTGTCCTGCAGTACGTCGGAGTCACCTAGTGCAG	10900 fluorescence intensity (a.u.)
TAACCCAACCCATTTGTTCTTAGCTAGAGCCACCACCACCCGGAGTCACCTAGTGCAG	8350 fluorescence intensity (a.u.)
GGAGGTCGGTGGCCTCGGCGGTGGAGGTCGGGGTCGGGGACGGAGTCACCTAGTGCAG	16500 fluorescence intensity (a.u.)
ACTCTACTCCCTCTGTTTCACAATGTAAGTTATTATATCACGGAGTCACCTAGTGCAG	8200 fluorescence intensity (a.u.)
GTTTCCTCTGTTCTGCGAATTTGCAGGTTTAGCCACAGTACGGAGTCACCTAGTGCAG	9270 fluorescence intensity (a.u.)
AGTTTTATCCTGGGTTTGTGTTTGGTGCTGTTCTTGCGTGCGGAGTCACCTAGTGCAG	10200 fluorescence intensity (a.u.)
GACTCGATGGTAGCTCTAATTTGCAGTTTTTTTTTTTTTTCGGAGTCACCTAGTGCAG	8970 fluorescence intensity (a.u.)
TTTTCCGGCCACGATGTCACGACTGCGCCATCACCATCCACGGAGTCACCTAGTGCAG	8540 fluorescence intensity (a.u.)

2 entries from above, with each value named:
ACAACCCACTGCGCTGCCCGCCGCCGCCGTCTCCGGCCGACGGAGTCACCTAGTGCAG
  binding signal = 8570 fluorescence intensity (a.u.)
TTTTCCGGCCACGATGTCACGACTGCGCCATCACCATCCACGGAGTCACCTAGTGCAG
  binding signal = 8540 fluorescence intensity (a.u.)
